For some of these results: For expression read-outs the peptide stands for its source gene, whose mRNA was measured; the gene is not named for every peptide.
What was measured:
Design in all cases: species or system human
[1] = test system: source genes of selected peptides; test: Expression profiling of source genes by in-house RNAseq, tumor vs normal tissues (target coverage); conditions: in-house RNASeq; for Target coverage, over-expression of source gene, AML: AML (N = 7), over-expression = more than 1.5-fold higher expression on tumor vs highest-expressing relevant normal tissue; for Target coverage, over-expression of source gene, BRCA: BRCA (N = 10); for Target coverage, over-expression of source gene, BRCA / Target coverage, over-expression of source gene, CLL / Target coverage, over-expression of source gene, CRC / Target coverage, over-expression of source gene, GB / Target coverage, over-expression of source gene, HCC / Target coverage, over-expression of source gene, OC / Target coverage, over-expression of source gene, OSCAR / Target coverage, over-expression of source gene, PC / Target coverage, over-expression of source gene, RCC / Target coverage, over-expression of source gene, SCLC / Target coverage, over-expression of source gene, pNSCLC: over-expression = more than 1.5-fold vs highest normal tissue; for Target coverage, over-expression of source gene, CLL: CLL (N = 10); for Target coverage, over-expression of source gene, CRC: CRC (N = 20); for Target coverage, over-expression of source gene, GB: GB (N = 24); for Target coverage, over-expression of source gene, HCC: HCC (N = 15); for Target coverage, over-expression of source gene, OC: OC (N = 12); for Target coverage, over-expression of source gene, OSCAR: OSCAR (N = 11); for Target coverage, over-expression of source gene, PC: PC (N = 26); for Target coverage, over-expression of source gene, RCC: RCC (N = 10); for Target coverage, over-expression of source gene, SCLC: SCLC (N = 10); for Target coverage, over-expression of source gene, pNSCLC: pNSCLC (N = 11)
[2] = test system: HLA-A*02 molecules of primary tumors; test: Identification and relative LC-MS quantitation of HLA-A*02 tumor-associated peptides presented on tissue samples (XPRESIDENT presentation profiles)
[3] = test system: source genes of selected peptides; test: Target coverage of source genes in tumor entities based on TCGA Research Network data; conditions: over-expressed = more than 2-fold above the highest 75% percentile of normal organs; for Target coverage, over-expression category of source gene, KICH (N = 66): Kidney chromophobe; for Target coverage, over-expression category of source gene, KIRP (N = 291): Kidney renal papillary cell carcinoma; for Target coverage, over-expression category of source gene, MESO (N = 87): Mesothelioma; for Target coverage, over-expression category of source gene, SKCM (N = 473): Skin cutaneous melanoma; for Target coverage, over-expression category of source gene, STAD (N = 415): Stomach adenocarcinoma; for Target coverage, over-expression category of source gene, THCA (N = 513): Thyroid carcinoma; for Target coverage, over-expression category of source gene, UVM (N = 80): Uveal melanoma; for Target coverage, over-expression category of source gene, BLCA (N = 408): Bladder urothelial carcinoma; for Target coverage, over-expression category of source gene, CESC (N = 307): Cervical squamous cell carcinoma and endocervical adenocarcinoma; for Target coverage, over-expression category of source gene, HNSC (N = 521): Head and neck squamous cell carcinoma; for Target coverage, over-expression category of source gene, DLBC (N = 48): Lymphoid neoplasm diffuse large B-cell lymphoma
[4] = Table 8A: selected HLA-A*02-binding tumor-associated peptides, cancer entities on which the peptide was found presented
[5] = Table 8B: selected HLA-A*02 peptides, presentation on additional cancer entities

Row | Substance | Target coverage, over-expression of source gene, AML [1] | Target coverage, over-expression of source gene, BRCA [1] | Target coverage, over-expression of source gene, CLL [1] | Target coverage, over-expression of source gene, CRC [1] | Target coverage, over-expression of source gene, GB [1] | Target coverage, over-expression of source gene, HCC [1] | Target coverage, over-expression of source gene, OC [1] | Target coverage, over-expression of source gene, OSCAR [1] | Target coverage, over-expression of source gene, PC [1] | Target coverage, over-expression of source gene, RCC [1] | Target coverage, over-expression of source gene, SCLC [1] | Target coverage, over-expression of source gene, pNSCLC [1] | Peptide Presentation on cancer entities [2, 4] | Peptide Presentation on cancer entities [2, 5] | Target coverage, over-expression category of source gene, KICH (N = 66) [3] | Target coverage, over-expression category of source gene, KIRP (N = 291) [3] | Target coverage, over-expression category of source gene, MESO (N = 87) [3] | Target coverage, over-expression category of source gene, SKCM (N = 473) [3] | Target coverage, over-expression category of source gene, STAD (N = 415) [3] | Target coverage, over-expression category of source gene, UVM (N = 80) [3] | further results
1 | 17: peptide found in MET (gene looked up) (ILHEHHIFL; listed as Homo sapiens) [compound 17] | I (<19% over-expression = I) | I (<19% over-expression = I) | I (<19% over-expression = I) | II (20-49% = II) | I (<19% over-expression = I) | II (20-49% = II) | II (20-49% = II) | I (<19% over-expression = I) | II (20-49% = II) | IV (>70% = IV) | I (<19% over-expression = I) | II (20-49% = II) | RCC, NSCLC | UTC | B (>=20% of tumors above the cutoff, but <50%) | A (>=50% of tumors above the cutoff) | C (>=5% of tumors above the cutoff, but <20%) | C (>=5% of tumors above the cutoff, but <20%) | C (>=5% of tumors above the cutoff, but <20%) | B (>=20% of tumors above the cutoff, but <50%) | Target coverage, over-expression category of source gene, THCA (N = 513) [3]: A (>=50% of tumors above the cutoff)
2 | 18: peptide found in MET (gene looked up) (YVLNEEDLQKV; listed as Homo sapiens) [compound 18] | I (<19% over-expression = I) | I (<19% over-expression = I) | I (<19% over-expression = I) | II (20-49% = II) | I (<19% over-expression = I) | II (20-49% = II) | II (20-49% = II) | I (<19% over-expression = I) | II (20-49% = II) | IV (>70% = IV) | I (<19% over-expression = I) | II (20-49% = II) | – | UTC, NSCLC | B (>=20% of tumors above the cutoff, but <50%) | A (>=50% of tumors above the cutoff) | C (>=5% of tumors above the cutoff, but <20%) | C (>=5% of tumors above the cutoff, but <20%) | C (>=5% of tumors above the cutoff, but <20%) | B (>=20% of tumors above the cutoff, but <50%) | Target coverage, over-expression category of source gene, THCA (N = 513) [3]: A (>=50% of tumors above the cutoff)
3 | 31: peptide found in PRKDC (gene looked up) (ALSDETKNNWEV; listed as Homo sapiens) [compound 31] | I (<19% over-expression = I) | III (50-69% = III) | I (<19% over-expression = I) | II (20-49% = II) | III (50-69% = III) | I (<19% over-expression = I) | III (50-69% = III) | II (20-49% = II) | I (<19% over-expression = I) | I (<19% over-expression = I) | IV (>70% = IV) | III (50-69% = III) | AML, CLL | – | – | – | – | C (>=5% of tumors above the cutoff, but <20%) | B (>=20% of tumors above the cutoff, but <50%) | C (>=5% of tumors above the cutoff, but <20%) | Target coverage, over-expression category of source gene, BLCA (N = 408) [3]: C (>=5% of tumors above the cutoff, but <20%); Target coverage, over-expression category of source gene, CESC (N = 307) [3]: C (>=5% of tumors above the cutoff, but <20%); Target coverage, over-expression category of source gene, HNSC (N = 521) [3]: B (>=20% of tumors above the cutoff, but <50%); Target coverage, over-expression category of source gene, SARC (N = 263) ([3]; Sarcoma): C (>=5% of tumors above the cutoff, but <20%); Target coverage, over-expression category of source gene, TGCT (N = 156) ([3]; Testicular germ cell tumors): B (>=20% of tumors above the cutoff, but <50%); Target coverage, over-expression category of source gene, UCS (N = 57) ([3]; Uterine carcinosarcoma): B (>=20% of tumors above the cutoff, but <50%)
4 | 321: peptide found in NME2 (gene looked up) (SLWFKPEEL; listed as Homo sapiens) [compound 321] | – | – | – | – | – | – | – | – | – | – | – | – | GC, BRCA, CLL, PC, GB, UBC, PCA, CRC, SCLC, HCC, MEL, OC, NSCLC, GBC_CCC, OSCAR, clPC, NHL | UTC, HNSCC, AML | – | C (>=5% of tumors above the cutoff, but <20%) | B (>=20% of tumors above the cutoff, but <50%) | – | – | – | Target coverage, over-expression category of source gene, ACC (N = 79) ([3]; Adrenocortical carcinoma): B (>=20% of tumors above the cutoff, but <50%); Target coverage, over-expression category of source gene, BLCA (N = 408) [3]: B (>=20% of tumors above the cutoff, but <50%); Target coverage, over-expression category of source gene, CESC (N = 307) [3]: C (>=5% of tumors above the cutoff, but <20%); Target coverage, over-expression category of source gene, CHOL (N = 36) ([3]; Cholangiocarcinoma): C (>=5% of tumors above the cutoff, but <20%); Target coverage, over-expression category of source gene, HNSC (N = 521) [3]: B (>=20% of tumors above the cutoff, but <50%); Target coverage, over-expression category of source gene, LGG (N = 534) ([3]; Lower grade glioma): A (>=50% of tumors above the cutoff); Target coverage, over-expression category of source gene, DLBC (N = 48) [3]: B (>=20% of tumors above the cutoff, but <50%); Target coverage, over-expression category of source gene, PCPG (N = 184) ([3]; Pheochromocytoma and paraganglioma): B (>=20% of tumors above the cutoff, but <50%)
5 | 340: peptide found in MOB1A (gene looked up) (SVAKTILKR; listed as Homo sapiens) [compound 340] | – | – | – | – | – | – | – | – | – | – | – | – | NSCLC, OSCAR | NHL | B (>=20% of tumors above the cutoff, but <50%) | – | – | – | – | – | Target coverage, over-expression category of source gene, DLBC (N = 48) [3]: B (>=20% of tumors above the cutoff, but <50%)

Reference: patent US10159726B2, “Peptides, combination of peptides and scaffolds for use in immunotherapeutic treatment of various cancers” (Immatics Biotechnologies GmbH, priority 2015, dated 2018)
